From PubChem BioAssay AID2685 (National Center for Advancing Translational Sciences (NCATS), 2010)
The list shows a part of the results. The main result of the screen is listed elsewhere. These columns were measured beside it and carry no call. The list favours compounds with an active or inconclusive main result. The note in brackets gives the kind of curve behind each potency; many fits are weak.

Test: qHTS Assay for Lipid Storage Modulators in Drosophila S3 Cells;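 on cell number change: cells counted by Cell Tracker Red CMTPX staining in the red channel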
Conditions: BODIPY lipid droplet fluorescence, 18-24 h; for cell number change: measured here: cell count max response, cells fed with added oleic acid
Summary of the method: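 Drosophila S3 cells loaded with oleic acid (400 uM, as added) and compounds at several concentrations; lipid droplets imaged by 488-nm laser-scanning cytometry, 500–530 nm intensity and object ratio to cell channel. Percent activity normalized to 20 uM Triacsin C.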

[1] = measured here: lipid fluorescence (Fed channel) AC50, cells fed with added oleic acid
[2] = measured here: cell number channel AC50, cells fed with added oleic acid

Row | SMILES | cell number change [%] | AC50 [1] | AC50 [2]
1 | Cc1cccc2c(CCNC(=O)c3ccc([N+](=O)[O-])cc3)c[nH]c12 | -5.43 | 1.64 µM [rising, partial curve, poor fit] | 
2 | Cc1ccc(NC(=O)C/C(N)=N/OC(=O)c2ccccc2)cc1 | 9.88 | 4.11 µM [falling, single point] | 
3 | CC(OC(=O)c1ccc(Br)c(S(=O)(=O)N2CCOCC2)c1)C(=O)NC1CCCCC1C (stereo unspecified) | 88.5 |  | 14.6 µM [rising, partial curve]
4 | CC(=O)OCC(=O)C1=CCC2C3CCC4=CC(=O)C=CC4(C)C3(F)C(OC(C)=O)CC12C (stereo unspecified) | 0.62 | 0.00461 µM [falling, full curve, poor fit] | 
5 | Cc1ccc2ccc[n+](Cc3ccccc3)c2c1 | 6.73 |  | 7.31 µM [falling, single point]
6 | CSc1nnc2ccc(-c3ccc(C)cc3)nn12 | 5.07 | 0.411 µM [falling, full curve, poor fit] | 
7 | Cc1ccc(SCCC(=O)Nc2cc(C)on2)cc1 | 0.605 |  | 
8 | Clc1ccc(Oc2cnns2)c(Cl)c1 |  |  | 0.731 µM [rising, single point]
9 | Fc1ccc(-c2cc(-c3nnc4n3CCCCC4)c3ccccc3n2)cc1 | -25.6 |  | 
10 | COc1ccc(N(CC(=O)Nc2cc(OC)ccc2OC)S(=O)(=O)c2c(C)noc2C)cc1 | -15.9 | 6.51 µM [rising, single point] | 
11 | COc1ccc(N2CCN(C(=O)c3c(Cl)cnn3C)CC2)cc1 | -4.53 |  | 
12 | O=C(c1ccc(CS(=O)c2ccccc2Cl)o1)N1CCN(c2ccccn2)CC1 (stereo unspecified) | -5.67 | 0.58 µM [rising, single point] | 
13 | CCCCOc1ccccc1NC(=O)c1ccc(=O)[nH]c1 |  | 0.82 µM [rising, single point] | 2.06 µM [rising, partial curve]
14 | Cc1ccc(OCc2cc(C(=O)NC3CCCCC3)no2)cn1 | -17.6 | 1.46 µM [rising, partial curve] | 
15 | NC(=O)CC(NC(=O)c1ccc(Cl)cc1)C(=O)NCCc1ccc(S(N)(=O)=O)cc1 (stereo unspecified) | 26.7 |  | 
16 | Cc1ccc(C(=O)OCC(=O)NCc2cc(C)c(O)c(C)c2)cc1S(=O)(=O)N1CCCCC1 | -39.9 | 8.2 µM [falling, partial curve, poor fit] | 13 µM [falling, partial curve]
17 | CN(C)S(=O)(=O)c1cccc(NC(=S)Nc2cc(Cl)cc(Cl)c2)c1 | -17.4 | 0.116 µM [rising, full curve, poor fit] | 
18 | COCCn1c(CNc2ccc(F)cc2)nnc1SCC(=O)Nc1ccc(OC)cc1OC | -19.4 | 29.1 µM [falling, single point] | 
19 | O=C(CSc1nnc(-c2ccco2)n1Cc1ccccc1)NCc1ccccc1 | -27.8 | 16.4 µM [falling, single point] | 
20 | CCCCNC(=S)N(Cc1c(C)noc1C)c1ccccc1 | 30.9 | 6.51 µM [rising, full curve, poor fit] | 7.31 µM [rising, partial curve, poor fit]

Row | SMILES | cell number change [%] | AC50 [1] | AC50 [2]
21 | O=C(O)CN1C(=O)COc2ccc(S(=O)(=O)N3CCCCCC3)cc21 | 10.7 |  | 
22 | CC(C)n1c(-c2ccco2)csc1=Nc1cccnc1 | -1.71 | 0.461 µM [rising, single point] | 
23 | CC(C)(C)OC(=O)NCCCCCc1nnc(SCC(=O)Nc2cccc(Cl)c2)o1 |  | 29.1 µM [falling, single point] | 
24 | O=C(C[n+]1cccc(C(=O)Nc2ccccc2)c1)c1ccc([N+](=O)[O-])cc1 | 17.1 |  | 
25 | CCCn1c(SCC(=O)Nc2cccc(S(=O)(=O)N(C)C)c2)nc2ccccc2c1=O | -23.9 | 0.146 µM [falling, full curve, poor fit] | 
26 | O=C(N/N=C/c1ccc(O)c(O)c1)NC12CC3CC(CC(C3)C1)C2 | -48.7 | 23.1 µM [falling, single point] | 29.1 µM [falling, single point]
27 | O=C(NCc1ccc(F)cc1)c1nc(-c2cccs2)no1 | 63.3 |  | 18.4 µM [rising, single point]
28 | COc1cc2c3nnc(-c4ccc(F)cc4)c-3cn(Cc3ccc(C)cc3)c2cc1OC | -64.5 | 7.31 µM [falling, partial curve] | 16.4 µM [falling, single point]
29 | Cc1cc(C(=O)CN2C(=O)C3CC=CCC3C2=O)c(C)n1-c1ccccc1 (stereo unspecified) | -16.2 | 0.291 µM [rising, partial curve, poor fit] | 
30 | Cc1cccnc1NC(=O)C1CCN(S(=O)(=O)c2cccs2)CC1 | 83.9 | 4.61 µM [rising, full curve, poor fit] | 0.116 µM [rising, full curve]
31 | COCCNC(=O)c1ccccc1NC(=O)CCSc1ccccc1 | 39.1 | 0.103 µM [rising, full curve] | 5.17 µM [rising, single point]
32 | COc1cc(N=C(N)N=C(N)N)cc(OC)c1 | -24.9 | 0.146 µM [falling, full curve, poor fit] | 0.146 µM [falling, full curve, poor fit]
33 | COc1ccc(/C=N\NC(=O)c2ccc(-c3ccccc3)cc2)cc1COC(C)=O | 9.38 | 0.146 µM [rising, full curve, poor fit] | 
34 | O=C(NN=C1CCCCCCC1)c1ccc2ccccc2n1 | 9.4 |  | 
35 | COc1ccc(NC(=O)COC(=O)CCCOc2ccc(Cl)cc2Cl)cc1Cl | -16.7 |  | 
36 | Cc1ccc(S(=O)(=O)NC2CC2)s1 | -8.53 |  | 
37 | CCOc1ccccc1NC(=O)COc1coc(CN2CCCc3ccccc32)cc1=O | -20.6 |  | 
38 | COc1ccccc1CCNC(=O)C(=O)NCC1OCCN1S(=O)(=O)c1ccc(Br)cc1 (stereo unspecified) | -28.6 | 0.082 µM [falling, full curve, poor fit] | 
39 | CCCC(=O)Nc1nnc(SCC(=O)NC2CC2)s1 | 7.26 | 18.4 µM [falling, partial curve, poor fit] | 
40 | COc1ccc(C(=O)NCc2nc(C)c(C)s2)cc1OC1CCN(C(C)C)CC1 | 23.7 | 8.2 µM [rising, partial curve] | 

Row | SMILES | cell number change [%] | AC50 [1] | AC50 [2]
41 | Cc1ccccc1NC(=S)NCc1ccc2c(c1)cc(C)n2C | 16.5 | 13 µM [rising, partial curve] | 
42 | O=c1c2ccccc2nc(-c2ccccc2)n1CCCn1ccnc1 | -7.03 | 25.9 µM [rising, partial curve, poor fit] | 
43 | COc1ccccc1N(C)S(=O)(=O)c1ccc(C(=O)N(C)Cc2ccc(Cl)s2)cc1 | -59.8 |  | 16.4 µM [falling, partial curve]
44 | CN(C)c1ccc(NC(=O)CN2CCN(S(=O)(=O)c3cc(Cl)ccc3Cl)CC2)cc1 | -11.8 | 7.31 µM [rising, partial curve] | 
45 | CC1(C)c2[nH]c3ccccc3c2C[C@H]2C(=O)N(N)CC(=O)N21 | 0.826 |  | 
46 | CC1CCN(C(=O)CNC(=O)Cn2ccc3ccccc3c2=O)CC1 | 2.72 | 1.16 µM [falling, single point] | 
47 | COc1ccc(CCNC(=O)CSc2ccccc2)cc1OC | -6.44 |  | 
48 | COc1ccc(COc2ccc(S(=O)(=O)N3CCCC3)cc2C(N)=O)cc1F | 41.3 | 29.1 µM [rising, single point] | 29.1 µM [rising, partial curve, poor fit]
49 | COc1ccc(N2CC(C(=O)N(CC(C)C)c3c(N)n(Cc4ccccc4)c(=O)[nH]c3=O)CC2=O)c(OC)c1 (stereo unspecified) | 6.59 | 9.2 µM [rising, partial curve, poor fit] | 
50 | COCCN(C(=O)COC(=O)c1ccc2[nH]c(C)c(C)c2c1)c1c(N)n(Cc2ccccc2)c(=O)[nH]c1=O | -33.2 | 29.1 µM [falling, single point] | 20.6 µM [falling, single point]
51 | Cc1cc(C)n(CCc2nc(-c3ccc(F)cc3)cs2)n1 | 24 |  | 0.651 µM [rising, full curve, poor fit]
52 | Cc1ccc2c(c1)sc(-c1ccc(N(C)C)cc1)[n+]2C | -36 |  | 5.17 µM [falling, full curve, poor fit]
53 | CC1(C)CC2CC(C)(CN2S(=O)(=O)c2ccc(C(=O)Nc3ccc(S(=O)(=O)N4CCOCC4)cc3)cc2)C1 (stereo unspecified) | -5.63 | 25.9 µM [falling, partial curve] | 
54 | O=C(NCCc1ccc2c(c1)OCCO2)c1ccc([N+](=O)[O-])cc1Cl | 39.7 | 14.6 µM [rising, single point] | 6.51 µM [rising, partial curve]
55 | CCOc1ccc(-c2nc(CCl)cs2)cc1OC | 14 | 0.282 µM [rising, full curve, poor fit] | 
56 | O=C(NCCc1ccccc1)c1c[nH]c2c(F)cccc2c1=O | 6.02 | 23.1 µM [rising, single point] | 
57 | CNC(=S)NCCN1CCOCC1 |  |  | 3.66 µM [rising, partial curve]
58 | COc1cc(C#Cc2c(-c3ccccc3)n(C)c3ccccc23)cc(OC)c1 | 38.8 | 11.6 µM [falling, single point] | 13 µM [rising, partial curve]
59 | O=C(NCC1COc2ccccc2O1)C1CCN(S(=O)(=O)c2cccc3nsnc23)CC1 (stereo unspecified) | -10.9 | 20.6 µM [falling, single point] | 
60 | CC(C)(C)c1ccc(S(=O)(=O)NCC(=O)N2CCCC2)cc1 | 10.6 | 29.1 µM [rising, single point] | 

Fetched by structure from above (four):
Row | SMILES | cell number change [%] | AC50 [1] | AC50 [2]
55 | CCOc1ccc(-c2nc(CCl)cs2)cc1OC | 14 | 0.282 µM [rising, full curve, poor fit] | 
45 | CC1(C)c2[nH]c3ccccc3c2C[C@H]2C(=O)N(N)CC(=O)N21 | 0.826 |  | 
46 | CC1CCN(C(=O)CNC(=O)Cn2ccc3ccccc3c2=O)CC1 | 2.72 | 1.16 µM [falling, single point] | 
58 | COc1cc(C#Cc2c(-c3ccccc3)n(C)c3ccccc23)cc(OC)c1 | 38.8 | 11.6 µM [falling, single point] | 13 µM [rising, partial curve]
